# In PubChem BioAssay AID493014 (National Center for Advancing Translational Sciences (NCATS), 2011):
# The other results are listed elsewhere or left out. These are further read-outs of the screen, such as a control signal, another cell line or another target. No call is given for them. Most of these compounds were active or inconclusive in the main read-out, so they are no random draw. The note in brackets gives the kind of curve behind each potency; many fits are weak.
# Assay: qHTS Assay to Find Inhibitors of Chronic Active B-Cell Receptor Signaling
# Details: ABC-DLBCL IkBa-CBG/CBR reporter, luminescence ratio (green luciferase fused to IkBa over red control in TMD8 lymphoma cells), 4 h
# How it was run: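 TMD8 human ABC-DLBCL cells with doxycycline-inducible IκBα–green luciferase fusion and unfused red luciferase, in 0.5% FBS medium; compounds up to 46 uM, 4 h at 37C. Green/red luminescence ratio, filter-overlap corrected, fitted to concentration-response curves.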
# [1] = measured here: CBR red luminescence, cell number
# [2] = measured here: IkBa-CBG green luminescence
SMILES,AC50 [1],AC50 [2]
C=CCOC(=O)c1sc(NC(=O)c2ccco2)nc1C,"2 µM [falling, partial curve, poor fit]",–
COc1cccc(-c2csc(N3CCN(CC(=O)NNC(=O)c4ccc(Cl)cc4)CC3)n2)c1,"11.2 µM [falling, single point]",–
COc1ccc(-c2noc(Cc3ccccc3OC)n2)cc1,"22.4 µM [falling, partial curve, poor fit]",–
CC(C)(C)N1C(=O)c2ccc(C(=O)Nc3ccc(O)cc3)cc2C1=O,"12.6 µM [falling, partial curve]",–
c1cnc(N2CCN(c3ccc4ccccc4n3)CC2)nc1,"12.6 µM [falling, partial curve, poor fit]",–
O=C(Nc1cccc(Cl)c1)c1ccc(=O)[nH]n1,"11.2 µM [falling, partial curve, poor fit]",–
COc1ccccc1NS(=O)(=O)c1cccc(-n2c(O)c(C=Nc3ccccc3C(=O)O)c3ccccc3c2=O)c1,"12.6 µM [falling, partial curve]",–
O=C(NCCc1ccccn1)c1cccc(S(=O)(=O)N2CCc3ccccc32)c1,"12.6 µM [falling, partial curve, poor fit]",–
COC(=O)c1ccccc1NC(=O)CSc1nc(C)c(Cl)c(C)c1C#N,"3.16 µM [falling, single point]",–
S=C(N/N=C/c1ccc2ncccc2c1)Nc1cccnc1,"14.1 µM [falling, partial curve, poor fit]",–
NS(=O)(=O)c1ccc(CCNC(=O)CNCCc2ccccc2)cc1,"5.62 µM [rising, single point]",–
COC(=O)C(=Cc1ccccc1[N+](=O)[O-])C(=O)OC,"1.41 µM [falling, full curve]",–
Cc1c(Cl)cccc1N/C(SCC(=O)N1CCCCCC1)=C(/C#N)c1nc2ccccc2s1,"5.8 µM [falling, full curve]",–
NS(=O)(=O)c1ccc(CNC(=O)/C=C/c2ccc(Cl)c(Cl)c2)cc1,"20.6 µM [falling, single point]",–
Clc1cccc(-c2cc3nc4c(c(N5CCNCC5)n3n2)CCCC4)c1,"29.1 µM [falling, single point]",–
CC(=O)Nc1cc2nn(-c3ccccc3)nc2cc1C,"12.6 µM [rising, single point]",–
COc1ccc(OCCNc2cc(N3CCOCC3)ccc2[N+](=O)[O-])cc1,"14.1 µM [rising, partial curve]",–
Cc1c(NC(=O)c2cc3c(s2)CCCC3)c(=O)n(-c2ccccc2)n1C,"35.5 µM [rising, partial curve, poor fit]",–
CC1CCN(C(=O)Cn2cc(SCC(=O)NCC3CCCO3)c3ccccc32)CC1 (stereo not given),"10 µM [falling, partial curve, poor fit]",–
CC1CCN(C(=O)COC(=O)c2cccs2)CC1,"14.6 µM [falling, single point]",–
COc1cc(N2CCCC2)c(OC)cc1/C=C(/C#N)c1ccc(F)cc1,"1.16 µM [rising, full curve, poor fit]",–
Cc1ccc(OCc2nc(-c3ccccn3)no2)cc1,"10.3 µM [falling, partial curve]",–

SMILES,AC50 [1],AC50 [2]
O=C(c1ccncc1)N1CCN(C(=O)c2cccc3ccccc23)CC1,"35.5 µM [falling, partial curve, poor fit]",–
Oc1ccc(Cl)cc1CNc1ccccn1,"2.51 µM [rising, partial curve, poor fit]",–
O=C(Nc1ccc(Cl)c(S(=O)(=O)N2CCCCC2)c1)c1ccncc1,"29.1 µM [falling, partial curve, poor fit]",–
Cc1nn(C)cc1C(=O)Nc1ccc2c(c1)OCCO2,"17.8 µM [falling, partial curve, poor fit]",–
CNC(=O)c1ccc2c(c1)N(Cc1ccccc1Cl)C(=O)c1ccccc1S2,"35.5 µM [falling, single point]",–
CCOC(=O)c1cccc(NC(=O)COc2ccc([N+](=O)[O-])cc2)c1,"10 µM [falling, partial curve, poor fit]",–
Cc1ccsc1C(=O)Nc1nc2ccccc2[nH]1,"1.41 µM [falling, full curve]",–
Cc1ccc(Nc2ccc(C(=O)O)cc2N)cc1,"11.2 µM [falling, partial curve, poor fit]",–
COCCNC(=O)c1c(N)n(/N=C/c2cccs2)c2nc3ccccc3nc12,–,"3.26 µM [rising, full curve, poor fit]"
C=C(C)c1ccccc1,"2.06 µM [rising, partial curve, poor fit]",–
CC(=O)Oc1c(C)cc(Cl)cc1C(=O)Nc1ccc([N+](=O)[O-])cc1Cl,"0.651 µM [falling, full curve]",–
COc1ccc(C(=O)C2CCCN(C(=O)c3ccc4cc[nH]c4c3)C2)c(C)c1 (stereo not given),"17.8 µM [rising, partial curve, poor fit]",–
CC1CCc2sc(C(=O)NN)cc2C1 (stereo not given),"8.91 µM [falling, partial curve, poor fit]","20 µM [falling, partial curve, poor fit]"
Cc1cnc(NC(=O)Cc2c[nH]c3ccccc23)s1,"6.31 µM [falling, full curve, poor fit]",–
COc1cc(-c2ncc3ccccn23)cc(OC)c1OC,"0.82 µM [falling, full curve, poor fit]",–
CC1(C)Oc2ccc(C(=O)NC3CCCC3)cc2N(CC(=O)N2CCOCC2)C1=O,"35.5 µM [rising, single point]",–
CCc1ccc(OCCCC(=O)O)c(Br)c1,"29.1 µM [rising, single point]",–
CCOC(=O)N1CCC(NC(=O)CN(C)S(=O)(=O)c2cc3c(cc2Cl)NC(=O)CO3)CC1,"0.146 µM [falling, full curve, poor fit]",–
O=C(Nc1nc(-c2ccccc2)cs1)c1cccs1,"11.2 µM [falling, partial curve, poor fit]",–
CCn1cc([N+](=O)[O-])c(C(=O)N2N=C(c3ccc4ccccc4c3)CC2c2ccccc2O)n1 (stereo not given),"5.8 µM [falling, full curve, poor fit]",–
Cc1ccc2nc(Nc3nc(C)cc(-c4ccccc4)n3)[nH]c(=O)c2c1,"35.5 µM [falling, partial curve, poor fit]",–
O=C(Nc1ccccn1)c1ccc(Cl)c(S(=O)(=O)N2CCCCCC2)c1,"1.3 µM [falling, full curve, poor fit]",–

# Whole records, quoted from the list. Values in the order: AC50 [1]	AC50 [2]
# `COC(=O)c1ccccc1NC(=O)CSc1nc(C)c(Cl)c(C)c1C#N` in the list: 3.16 µM [falling, single point]	–
# `CC1CCN(C(=O)COC(=O)c2cccs2)CC1` in the list: 14.6 µM [falling, single point]	–
# `Cc1cnc(NC(=O)Cc2c[nH]c3ccccc23)s1` in the list: 6.31 µM [falling, full curve, poor fit]	–
# `Cc1c(NC(=O)c2cc3c(s2)CCCC3)c(=O)n(-c2ccccc2)n1C` in the list: 35.5 µM [rising, partial curve, poor fit]	–

# More structures.

SMILES,AC50 [1],AC50 [2]
CC1CCN(CCNC(=O)C2CCCN(c3ncnc4c3nc3n4CCCCC3)C2)CC1 (stereo not given),"2.82 µM [falling, partial curve, poor fit]",–
Nc1nccc(-c2ccc(-n3cnc4ccccc43)cc2)n1,"17.8 µM [falling, partial curve]",–
c1ccc2c(Nc3nc(N4CCOCC4)c4ccccc4n3)cccc2c1,"14.6 µM [falling, partial curve]",–
O=C(Nc1ccc(S(=O)(=O)Nc2nccs2)cc1)c1cnc(Cl)c(Cl)c1,"35.5 µM [falling, single point]",–
Cc1cccc(CC(=O)N2CCN=C2SCc2ccc([N+](=O)[O-])cc2)c1,"29.1 µM [falling, single point]",–
CC(C(=O)N(C)C)N(C#N)c1nc(N(C)C)nc(N(C)C)n1 (stereo not given),"5.62 µM [rising, single point]",–
CN(C(=O)c1ccc(N2CCCCC2)c([N+](=O)[O-])c1)C1CCS(=O)(=O)C1 (stereo not given),"2.06 µM [rising, partial curve, poor fit]",–
COc1ccccc1NC(=O)CN(c1ccc(C)cc1)S(=O)(=O)c1c(C)n[nH]c1C,"17.8 µM [falling, partial curve, poor fit]",–
Cc1oc2c(c1C(=O)NCCO)CCCC2,"29.1 µM [falling, single point]",–
CC(C)Cc1ccc(C(C)C(=O)Nc2ccc(O)cc2)cc1 (stereo not given),"2.82 µM [falling, partial curve, poor fit]",–
COC(=O)c1c(NC(=O)C2CCCO2)sc2c1CCC2 (stereo not given),"23.1 µM [rising, single point]",–
CCc1ccc(C(=O)NNc2ccccc2F)cc1,"35.5 µM [falling, partial curve, poor fit]",–
CC(=O)Nc1ccc(N2CCN(C(C)=O)CC2)cc1,"3.55 µM [rising, full curve]",–
COc1ccc2c(c1)c(CC(=O)OCC(=O)O)c(C)n2C(=O)c1ccc(Cl)cc1,"2 µM [falling, full curve]",–
CC(=O)Nc1ccc(NC(=O)c2nc(S(=O)(=O)Cc3ccccc3)ncc2Cl)cc1,"3.16 µM [falling, full curve]",–
N=c1c(S(=O)(=O)c2ccc(Br)cc2)cc2c(=O)n3ccccc3nc2n1C1CCCCC1,"7.94 µM [rising, partial curve, poor fit]",–
Cc1ccc(C(=O)N/C(=C\c2ccc(-c3cccc([N+](=O)[O-])c3)o2)C(=O)NCCCN2CCOCC2)cc1,"12.6 µM [falling, partial curve, poor fit]",–
CCN(C(=O)c1nn(-c2ccc(OC)cc2)c(=O)c2c1c1ccccc1n2C)c1ccc(OC)cc1,"0.562 µM [rising, full curve, poor fit]",–
O=c1c2c(-c3cccs3)csc2ncn1-c1ccc(Br)cc1,"6.31 µM [rising, single point]",–
O=C(Nc1ccccc1)c1cccnc1N1CCOCC1,"0.82 µM [rising, full curve, poor fit]",–
